Results are given in words; binding and its absence hold for the method and conditions named. Some binding calls cover weakened binding; strength is not graded here.
B1: SC05-140 (scFv)
scFv: EVQLVESGGVAVQPGRSLRLSCAASGFSFRDYGMHWVRQAAGKGLEWVAFIWPHGVNRFYADSMEGRFTISRDDSKNMLYLEMNNLRTEDTALYYCTRDQDYVPRKYFDLWGRGTLVTVSSGTGGSGGTGSGTGGSTSYVLTQPPSVSVAPGQTARITCGGNNIGSKSVHWYQQKPGQSPVLVMYQDRRRPSGIPERFSGSNSGHTATLTISGTQAMDEADYYCQAWDSSTGVFGTGTQLTVL
B2: SC06-421 (scFv)
scFv: EVQLVESGAEVKKPGESLKISCKGSGYSFTSHWIGWVRQMPGKGLEWMGIIYPGDSDTRYSPSFQGQVTISVDKSISTAYLQWSSLKASDTAMYYCARLGSSRWSHFDYWGQGTLVTVSSGTGGSGGTGSGTGGSTQSALTQPPSASGSPGQSVTISCTGTSTDVGGYNYVSWYQHHPGKAPKLVIYGVSKRPSRVPDRFSGSKSGNTASLTVSGLQAEDEADYYCSSYAGSNNLVFGGGTKLTVL

Sequences of proteins named here, by UniProt entry; tags and fusion partners are left off. Residues count along the entry.
UniProt P02769, residues 25-607: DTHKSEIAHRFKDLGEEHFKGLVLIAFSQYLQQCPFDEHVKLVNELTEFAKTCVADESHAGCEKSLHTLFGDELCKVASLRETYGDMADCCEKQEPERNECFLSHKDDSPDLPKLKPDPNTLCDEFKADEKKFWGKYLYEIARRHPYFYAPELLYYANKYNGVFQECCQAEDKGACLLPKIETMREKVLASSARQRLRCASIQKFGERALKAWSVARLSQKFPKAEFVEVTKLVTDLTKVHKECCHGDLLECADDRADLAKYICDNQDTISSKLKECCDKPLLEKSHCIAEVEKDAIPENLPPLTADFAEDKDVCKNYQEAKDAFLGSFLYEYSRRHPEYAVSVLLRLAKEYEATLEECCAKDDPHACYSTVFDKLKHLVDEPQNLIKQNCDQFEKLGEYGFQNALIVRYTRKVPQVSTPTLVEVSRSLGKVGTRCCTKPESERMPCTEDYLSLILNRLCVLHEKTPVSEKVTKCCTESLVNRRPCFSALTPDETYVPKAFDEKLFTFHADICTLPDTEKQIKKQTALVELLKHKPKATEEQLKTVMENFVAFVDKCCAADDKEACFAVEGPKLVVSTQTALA

Molecular target: 송아지 혈청 알부민(BSA) (bovine (printed: 송아지 혈청 알부민)) (UniProt P02769)
Test: phage ELISA, 1% BSA coated, anti-M13-peroxidase, absorbance 492 nm

Row | Binder | binding
1 | B1 | binds
2 | B2 | binds

Source: patent KR20160003317A
